## Library compounds against nucleic acid targets

Calls as published in the ROBIN set (doi:10.1002/anie.202211358).

Oligonucleotides screened, 5′ to 3′:
SAM-II: SAM-II riboswitch RNA pseudoknot, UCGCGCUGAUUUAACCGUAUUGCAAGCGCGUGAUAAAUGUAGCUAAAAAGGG. About 200 hits among about 21,000 compounds.
PreQ1: PreQ1 riboswitch RNA pseudoknot, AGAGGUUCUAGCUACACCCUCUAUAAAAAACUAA. From B. subtilis. About 170 hits among about 24,000 compounds.
TPP: TPP riboswitch RNA three-way junction, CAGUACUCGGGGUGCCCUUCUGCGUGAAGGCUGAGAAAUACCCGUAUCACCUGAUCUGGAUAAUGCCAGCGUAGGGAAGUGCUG. About 160 hits among about 24,000 compounds.

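Compounds were printed on reactive glass slides in duplicate spots, a dye-labelled oligonucleotide was laid over them, and the fluorescence left after washing was read. The data file lists only calls. An earlier report of the laboratory on the PreQ1, TPP and SAM-II riboswitches (doi:10.1038/s41467-019-09493-3) used 1 µM RNA for 2 h and required a mean Z-score above 3 (spot signal-to-noise against the whole library), a score well above that on a control array, and duplicate spots agreeing (coefficient of variation under 100); it then also set aside compounds that hit other targets, which this list keeps. The cut-offs behind this list may differ. A missing hit is not proof of no binding, and a hit is not a measured affinity.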 A compound is marked yes if it was called a hit and no if it was screened but was not. This is an unselected part of the compounds tested. A target missing from an entry has no call listed here.

{"compound": "NC1=C(c2nc3ccccc3[nH]2)C(=O)CN1c1ccc(Cl)c(Cl)c1", "PreQ1": "no", "TPP": "no"}
{"compound": "CN(CCO)C[C@@H]1CN(Cc2c(Cl)cncc2Cl)C[C@@H]1CO", "SAM-II": "no", "PreQ1": "no", "TPP": "no"}
{"compound": "C=CCNC(=O)c1sc(N2CCCCC2)nc1N", "SAM-II": "no", "PreQ1": "no", "TPP": "no"}
{"compound": "CCN(CC)CCOC(=O)c1ccc2nc(N)sc2c1", "SAM-II": "no", "PreQ1": "no", "TPP": "no"}
{"compound": "N#Cc1nc(C=Cc2ccc(F)cc2)oc1NCCN1CCOCC1", "PreQ1": "no", "TPP": "no"}
{"compound": "Nc1nc2c(s1)CN(C(=O)CCC1NC(=O)NC1=O)CC2", "stereo": "configuration not stated", "SAM-II": "no", "PreQ1": "no", "TPP": "no"}
{"compound": "Cc1[nH]nc2c1C(c1ccccc1Cl)C(C#N)=C(N)O2", "stereo": "configuration not stated", "SAM-II": "no", "PreQ1": "no", "TPP": "no"}
{"compound": "CCOC(=O)C1(C)C=C(Nc2ccc(C(C)=O)cc2)C(=O)N1c1ccc(C(C)=O)cc1", "stereo": "configuration not stated", "SAM-II": "no", "PreQ1": "no", "TPP": "no"}
{"compound": "COc1c(C)cc(NC(=O)NCC(CO)Cc2ccsc2)cc1C", "stereo": "configuration not stated", "SAM-II": "no", "PreQ1": "no", "TPP": "no"}
{"compound": "CCOC(=O)c1cnn(-c2cc(C)nc3c(-c4ccc(C)cc4)c(C(F)(F)F)nn23)c1N", "PreQ1": "no", "TPP": "no"}
{"compound": "Cc1cccc(OCCCn2c(CO)nc3ccccc32)c1", "PreQ1": "no", "TPP": "no"}
{"compound": "Nc1nc(SCC(=O)NCCCN2CCOCC2)nc2sc3c(c12)CCC3", "SAM-II": "no", "PreQ1": "no", "TPP": "no"}
{"compound": "CC(=O)N1CCN(c2ccc(NCc3ccc(F)cc3)cc2)CC1", "SAM-II": "no", "PreQ1": "no", "TPP": "no"}
{"compound": "CCSc1nc2ccccc2n1CCO", "SAM-II": "no", "PreQ1": "no", "TPP": "no"}
{"compound": "C=CCNc1nc2c(c(=O)n(C)c(=O)n2C)n1CCC(C)C", "SAM-II": "no", "PreQ1": "no", "TPP": "no"}
{"compound": "c1ccc(CSc2ncc(-c3nccn3C3CCNC3)cn2)cc1", "stereo": "configuration not stated", "SAM-II": "no", "PreQ1": "no", "TPP": "no"}
{"compound": "CSc1cccc(NS(=O)(=O)c2cc(Br)cnc2N)c1", "PreQ1": "no", "TPP": "no"}
{"compound": "O=C(c1ccc2ncsc2c1)N1CCC2(CC1)Nc1ccccc1NC2=O", "SAM-II": "no", "PreQ1": "no", "TPP": "no"}
{"compound": "Cc1cccc(-c2noc(Cn3cnc4sc5c(c4c3=O)CCNC5)n2)c1", "SAM-II": "no", "PreQ1": "no", "TPP": "no"}
{"compound": "CC(CO)N(Cc1ccccc1)Cc1sccc1Cl", "stereo": "configuration not stated", "SAM-II": "no", "PreQ1": "no", "TPP": "no"}
{"compound": "CC1(C)CC(=O)C2=C(C1)Nc1ccccc1NC2c1nc2ccccc2[nH]1", "stereo": "configuration not stated", "SAM-II": "no", "PreQ1": "no", "TPP": "yes"}
{"compound": "CCN(CC)C(=O)[C@@H]1C[C@@H](N)CN1C(=O)c1cccnn1", "SAM-II": "no", "PreQ1": "no", "TPP": "no"}
{"compound": "OC(C#CCN1CCCCC1)c1ccccc1", "stereo": "configuration not stated", "SAM-II": "no", "PreQ1": "no", "TPP": "no"}
{"compound": "O=c1c2ccccc2cnn1CCNC1CCC2(CCNCC2)CC1", "SAM-II": "no", "PreQ1": "no", "TPP": "no"}
{"compound": "CCc1ccc2nc(C)cc(C(=O)N3C[C@H](N(C)C)C[C@H]3CO)c2c1", "SAM-II": "no", "PreQ1": "no", "TPP": "no"}
{"compound": "CCC(CO)NCc1ccncc1", "stereo": "configuration not stated", "SAM-II": "no", "PreQ1": "no", "TPP": "no"}

Some entries from above, unchanged:

{"compound": "CSc1cccc(NS(=O)(=O)c2cc(Br)cnc2N)c1", "PreQ1": "no", "TPP": "no"}
{"compound": "Cc1[nH]nc2c1C(c1ccccc1Cl)C(C#N)=C(N)O2", "stereo": "configuration not stated", "SAM-II": "no", "PreQ1": "no", "TPP": "no"}